Results: patent US9709557B2, “Anthraquinone based near IR emitting compounds and uses thereof” (LIFE TECHNOLOGIES CORPORATION, priority 2008, dated 2017)

Test system: THP-1 monocytic cells
Experiment: Imaging of nuclear proteins: NF-kB nuclear translocation with nuclear counterstain (Example 40)
Type: cell-based

For CN(C)CCNC(=O)CNc1ccc(O)c2c1C(=O)c1c(O)ccc(N)c1C2=O [Compound 9], the “similarity score (NF-kB nuclear translocation, untreated vs LPS)” value (0.1% TRITON X-100 permeabilization buffer) was 2.10, the “similarity score (NF-kB nuclear translocation, untreated vs LPS)” value (0.1% saponin permeabilization buffer (negative control)) was 0.04 and the “similarity score (NF-kB nuclear translocation, untreated vs LPS)” value (0.25% TRITON X-100 permeabilization buffer) was 2.00. For the same molecule, the “similarity score (NF-kB nuclear translocation, untreated vs LPS)” value (methanol/0.1% TRITON X-100 permeabilization buffer) was 2.26.
